# According to PubChem BioAssay AID493014 (National Center for Advancing Translational Sciences (NCATS), 2011):
# Hit rate of the full screen: of about 340,000 compounds, about 170 (0.05%) were called active. The inconclusive results got no clear call from the source; some entries with a clear call stand among them for comparison. Calls come from the whole dose curve; as a rule, active = well fitted inhibition curve with a large enough effect in the signal ratio, with a control signal flat (not every such curve was filed as active); inconclusive = small, poorly fitted or top-dose-only effect, or effect the other way, or a change in a side signal; inactive = flat fitted curve, though single readings scatter; the % refers to the signal ratio. Potencies beside an inconclusive call are fits to weak or partial responses and may not hold up.
# Test: qHTS Assay to Find Inhibitors of Chronic Active B-Cell Receptor Signaling;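 for activity change, negative = inhibition: plate controls were basal doxycycline-induced cells for no effect and cells given 10 µM MG132 for full effect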
# Conditions: ABC-DLBCL IkBa-CBG/CBR reporter, luminescence ratio (green luciferase fused to IkBa over red control in TMD8 lymphoma cells), 4 h; activity change, negative = inhibition: at 46.1 µM (top of the series)
# Outline: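 Cell line TMD8 (human ABC DLBCL), stably expressing tet-inducible CBG68-IkBa fusion and CBR; IMDM/0.5% FBS; cpd up to 46 uM; dox induction, 4 h, 37C/5% CO2; dual luminescence; green/red ratio; MG132 control.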
# Potency is the fitted concentration of half-maximal effect.
SMILES,Potency,"activity change, negative = inhibition"
O=c1cc(/C=C/c2ccccc2)oc2ccccc12,"inconclusive: 29.1 µM [cytotoxic, single point]",
Cc1cc(C(=O)NN=Cc2c(C)[nH]c3ccccc23)c(C)o1,"inconclusive: 20.6 µM [falling, partial curve]",
COc1ccc(-c2cc(C(=O)Nc3cccc(O)c3)no2)cc1,"inconclusive: 31.6 µM [rising, single point]",
NC(=O)COc1ccc(=O)n(-c2ccccc2)n1,,inconclusive: 27.5%
C#CCOCCOCCOCCNc1nc(N2CCN(C(=O)CCCCCCCCCCNC(=O)Cn3cc(C[C@@H](C)O)nn3)CC2)nc(N2CCN(C(=O)CCCCCCCCCCNC(=O)[C@@H]([C@H](C)O)n3cc(C)nn3)CC2)n1,,inconclusive: -8.91%
CC(C)(C)c1ccc(OC2=CS(=O)(=O)c3ccccc32)cc1,,inconclusive: -0.81%
COc1ccc(Nc2nc(C)nc3sc4c(c23)CCC4)cc1O,,inactive: 0.119%
CCCC(=O)NC(=S)Nc1cccc(NC(=O)c2ccccc2)c1,,inconclusive: -11.1%
O=C(CN1CCC(n2nnc3cc(C(F)(F)F)ccc32)CC1)Nc1ccc2c(c1)OCCO2,,inconclusive: -1.21%
CC(=O)c1cccc(NC(=O)c2oc(=O)c3ccccc3c2-c2ccccc2)c1,,inactive: -19.4%
CC1C(=O)N2CCCc3cc(NC(=O)c4ccccc4F)cc1c32 (centres undefined),"inconclusive: 20.6 µM [falling, single point]",
COc1ccccc1N1CCN(C(=O)C(=O)c2cn(CC(=O)N3CCCCCC3)c3ccccc23)CC1,,inconclusive: -16.4%
COc1ccc(C(=O)C2CCCN(Cc3cccn3-c3nccs3)C2)cc1OC (centres undefined),,inactive: 3.48%
CCCCC(=O)Nc1cc([N+](=O)[O-])ccc1F,"inconclusive: 20 µM [falling, single point]",
COc1ccc(NC(=O)CSc2nnnn2C2CCCC2)cc1,,inactive: -18.6%
N#Cc1ccccc1Sc1ccccc1C(=O)OCc1nnc(-c2ccccc2)o1,,inconclusive: 5.6%
CSc1nc(N)nc(SCC(=O)Nc2cccc(F)c2)c1C#N,"inconclusive: 13 µM [falling, partial curve]",
Cc1ccc(OCCCC(=O)NNC(=O)c2ccccn2)cc1,,inconclusive: 9.37%
Cc1ccc(Cn2c(/C=C/c3ccco3)nc3ccccc32)cc1,,inactive: 4.11%
Cc1ccc(C(=O)O/N=C(\N)c2cccnc2)cc1[N+](=O)[O-],,inconclusive: 2.98%

# In the list so far, these have an aryl thioether with sulfur outside any ring:
SMILES,Potency,"activity change, negative = inhibition"
COc1ccc(NC(=O)CSc2nnnn2C2CCCC2)cc1,,inactive: -18.6%
N#Cc1ccccc1Sc1ccccc1C(=O)OCc1nnc(-c2ccccc2)o1,,inconclusive: 5.6%
CSc1nc(N)nc(SCC(=O)Nc2cccc(F)c2)c1C#N,"inconclusive: 13 µM [falling, partial curve]",

# Later entries:

SMILES,Potency,"activity change, negative = inhibition"
CC(C)c1ccc(Nc2cnn(C34CC5CC(CC(CC(=O)O)(C5)C3)C4)c(=O)c2Cl)cc1,,inconclusive: 7.73%
COc1ccc(-c2noc(CCC(=O)N3CCN(c4ccccc4C(F)(F)F)CC3)n2)cc1,,inactive: -10.2%
CC1(C)SC(=S)N(/N=C/c2ccccc2O)C1N(O)C(=O)Nc1ccccc1 (centres undefined),,inconclusive: 21.8%
COc1ccc(OCCSCc2nnc(NC(=O)Nc3ccc(Cl)cc3)s2)cc1,,inconclusive: 8.36%
Cc1ccc2c(c1)NC(=O)[C@@]1(C)[C@@H](c3ccccc3)[C@H]3COc4ccc(Cl)cc4[C@@H]3N1C2=O,,inconclusive: 0.743%
COCc1ccc(C(=O)N(C)CC2CCCN(CCc3ccc(Cl)cc3)C2)o1 (centres undefined),,inactive: 0.615%
COc1ccc(-c2cc(C(=O)Nc3nc4c(C)cccc4s3)c3ccccc3n2)cc1OC,,inconclusive: -12.5%
O=c1c2c(nc3cc(-c4ccccc4)[nH]n13)CCS2,"inconclusive: 0.631 µM [rising, partial curve, poor fit]",
Fc1ccc(-n2nnnc2-c2cnc(-c3cccs3)nc2C(F)(F)F)cc1,"inconclusive: 25.1 µM [falling, single point]",
C/C(O)=C(/C=NCC(=O)O)C(=O)Nc1nccs1,,inconclusive: -26.6%
COc1cc(NC(=O)c2cc3c(C)nc4ccccc4c3o2)cc(OC)c1OC,,inactive: 7.99%
O=C(O)COc1ccccc1/C=N/NC(=O)c1ccc(F)cc1,"inconclusive: 20 µM [falling, single point]",
Cc1cccc(NC(=O)c2ccc(S(=O)(=O)N3CCOCC3)cc2)c1C,,inconclusive: -9.41%
CC1C=Cc2ccccc2N1C(=O)c1ccccc1 (centres undefined),,inconclusive: 0.515%
Clc1ccc(CONc2ncnc3nonc23)c(Cl)c1,"inconclusive: 8.91 µM [rising, partial curve, poor fit]",
Cc1ccccc1/C=N/N=C1/NC(=O)CCS1,,inconclusive: -3.71%
CC(C)c1ccc(C2C3CSCC=C3C(C#N)=C(N)C2(C#N)C#N)cc1 (centres undefined),,inconclusive: 5.43%
Cc1ccc(C2CC(c3cccs3)=NN2C(=O)CCl)cc1 (centres undefined),,inconclusive: 5.17%
Cn1c(=O)c2c(nc(N/N=C/c3cccnc3)n2Cc2ccc(F)cc2)n(C)c1=O,,inconclusive: 11.8%
